Laboratory results: PubChem BioAssay AID651900 (Broad Institute, 2012)
The other results are listed elsewhere or left out. Further columns of the screen follow, without active or inactive calls.

experiment: cytotoxicity in NIH3T3 fibroblasts, dose response, cytotoxicity control, cell-based, plate reader, cherry-pick, two tests (AID 651900); settings: test 2 concentration series, at 26 µM

Structure (SMILES)	activity
Cc1cc(C)n2nc(C(=O)Nc3cccnc3)nc2n1	3.28%
Cc1cc(C)n(-c2ccc(C(=O)Nc3ccc4c(c3)OCO4)cc2)n1	3.07%
Nn1c(SC/C=C/c2ccccc2)nnc1-c1cccnc1	11.5%
O=C(CSc1nnc(-c2ccncc2)n1-c1ccc(Cl)cc1)NCc1cccs1	-7.81%
O=C(Nc1cccnc1)c1ccc(Cl)c(Cl)c1	1.54%
COc1ccc(C(=O)Nc2cccnc2)cc1OC	-1.88%
CC1=CC2=NC(=O)/C(=C\c3cc(C)n(-c4ccccc4F)c3C)C(=N)N2O1	-0.896%
CCOC(=O)c1c(C)[n+](-c2ccc(C)cc2)c(CC)c2cc(OC)c(OC)cc12	-2.52%
CCOC(=O)C1(CCc2ccccc2)CCN(C(=O)CN2CCOC2=O)CC1	8.7%
CC1=C(C#N)C(c2cccnc2)C2=C(CC(c3ccc(Cl)cc3)CC2=O)N1 (stereo not drawn)	-2.76%
CC(=O)c1ccc(N2CCN(C(=O)c3ccc4c(c3)OCO4)CC2)cc1	-4.43%
O=C(Nc1cccnc1)c1ccc(N2CCOCC2)c([N+](=O)[O-])c1	6.82%
Cn1ncc2cc3c(Nc4ccc(Cl)cc4)cccc3nc21	-2.89%
Cn1nnc2cc(C(=O)Nc3cccnc3)ccc21	2.21%
Cc1nc2nc(SCC(=O)NCCCN3CCOCC3)nn2c(C)c1Cc1ccccc1	8.93%
COc1cc(-c2n[nH]c(=S)n2C(C)c2ccccc2)cc(OC)c1OC (stereo not drawn)	1.03%
Cc1ccc(Cc2c(C)nc3nc(SCC(=O)NCCCN4CCCCC4)nn3c2C)cc1	9.86%

Looked up above.
`CCOC(=O)c1c(C)[n+](-c2ccc(C)cc2)c(CC)c2cc(OC)c(OC)cc12` – activity: -2.52%
`Cc1cc(C)n2nc(C(=O)Nc3cccnc3)nc2n1` – activity: 3.28%

The list continues:

Structure (SMILES)	activity
O=C(Nc1ccc(F)c(F)c1)c1ccc(-n2cncn2)c([N+](=O)[O-])c1	2.21%
CC(=O)c1ccc(NC(=O)COC(=O)Cc2ccsc2)cc1	-2.62%
CCOC(=O)C1CCN(C(=O)Nc2ccc3snnc3c2)CC1	4.49%
Cc1cccc(-c2nnc(SCC#N)n2-c2ccccc2)c1	-4.8%
O=C(Nc1ccc(F)c(F)c1)C1CCN(S(=O)(=O)c2cccs2)CC1	-5.08%
CC(=O)c1ccc(C(=O)N2CCCC(CO)(Cc3ccccc3C)C2)s1 (stereo not drawn)	-3.6%
O=C(C1CCCN(S(=O)(=O)c2cccnc2)C1)N1CCn2c1nc1ccccc12 (stereo not drawn)	2.3%
CC(Oc1cc2oc(=O)c3c(c2cc1Cl)CCC3)C(=O)NCc1cccnc1 (stereo not drawn)	-5.26%
CC(=O)c1ccc(C(=O)N2CCCC(C(=O)c3ccc(Cl)cc3)C2)s1 (stereo not drawn)	-2.09%
C=CCn1c(SCc2c(C(=O)OC)sc(N)c2C(=O)OC)nnc1-c1ccc(Br)cc1	1.04%
O=C(Nc1ccc2snnc2c1)N1CCOCC1	0.943%
O=C1CCCc2c1cc(C(=O)NCc1ccco1)c(=O)n2-c1ccc(Cl)cc1	1.95%
CC(=O)c1ccc(N2CCN(C(=O)c3ccc(Br)cc3)CC2)c(F)c1	2.12%
O=C(NC1CCCc2c1cnn2-c1cc(F)cc(F)c1)c1ccc[n+]([O-])c1 (stereo not drawn)	-1.71%
COc1ccc(C2c3c(oc4ccc(Cl)cc4c3=O)C(=O)N2CCN2CCOCC2)cc1 (stereo not drawn)	5.86%
Cc1cccc(-c2ccc3c(c2)C2CC3CCN2)c1 (stereo not drawn)	-8.38%
